Data on one molecule can be found in publication PMC10653843.

These are yes or no findings as the source states them, for the method shown. Binding seen in cells or lysates may run through a third protein. Binding calls can cover weak binding; strength is not graded here.

This experiment has as its target Myc-Vpu A14L (HIV-1). Description: co-IP; two batches of HEK293T cells transfected separately (FLAG-tagged hPSGL-1 WT or T379A; Myc-Vpu or Myc-Vpu A14L), lysates mixed, Vpu precipitated with anti-Myc magnetic beads overnight at 4°C; Western blot.

B1: human PSGL-1 (protein, UniProt Q14242 42-412)
chain: QATEYEYLDYDFLPETEPPEMLRNSTDTTPLTGPGTPESTTVEPAARRSTGLDAGGAVTELTTELANMGNLSTDSAAMEIQTTQPAATEAQTTQPVPTEAQTTPLAATEAQTTRLTATEAQTTPLAATEAQTTPPAATEAQTTQPTGLEAQTTAPAAMEAQTTAPAAMEAQTTPPAAMEAQTTQTTAMEAQTTAPEATEAQTTQPTATEAQTTPLAAMEALSTEPSATEALSMEPTTKRGLFIPFSVSSVTHKGIPMAASNLSVNYPVGAPDHISVKQCLLAILILALVATIFFVCTVVLAVRLSRKGHMYPVRNYSPTEMVCISSLLPDGGEGPSATANGGLSKAKSPGLTPEPREDREGDDLTLHSFLP
Consider B1, for which the binding result is given as “binds”.
